# According to patent publication US20070249620A1, “Urea Derivative” (priority 2004, published 2007):
# Some results were stated once for a whole list of compounds, not compound by compound.
# System: male C57BL/6N mouse
# Experiment: Neutral fat absorption inhibitory effect (triglyceride concentration in small intestine lymph fluid after oral fat emulsion)
# Assay type: in vivo
# Conditions: compound 10 or 30 mg/kg orally with 20% neutral fat emulsion, one hour after administration
row,SMILES,neutral fat absorption inhibitory effect (decrease in triglyceride concentration in lymph fluid vs control group) [%]
1,"Cc1cnc(NC(=O)Nc2ccc(N3CCN(C(=O)Nc4ccc(OCCO)cc4C(F)(F)F)CC3)cc2)s1 [Example 213, 4-{4-[3-(5-methyl-thiazol-2-yl)-ureido]-phenyl}-piperazine-1-carboxylic acid [4-(2-hydroxy-ethoxy)-2-trifluoromethyl-phenyl]-amide]",≥ 60
2,"COc1cccc(NC(=O)Nc2ccc(N3CCN(C(=O)Nc4ccc(OCCO)cc4C(F)(F)F)CC3)cc2)c1 [Example 214, 4-{4-[3-(3-methoxy-phenyl)-ureido]-phenyl}-piperazine-1-carboxylic acid [4-(2-hydroxy-ethoxy)-2-trifluoromethyl-phenyl]-amide]",≥ 60
3,"CCOc1cccc(NC(=O)Nc2ccc(N3CCN(C(=O)Nc4ccc(OCCO)cc4C(F)(F)F)CC3)cc2)c1 [Example 215, 4-{4-[3-(3-ethoxy-phenyl)-ureido]-phenyl}-piperazine-1-carboxylic acid [4-(2-hydroxy-ethoxy)-2-trifluoromethyl-phenyl]-amide]",≥ 60
4,"COc1cc(NC(=O)Nc2ccc(N3CCN(C(=O)Nc4ccc(OCCO)cc4C(F)(F)F)CC3)cc2)cc(OC)c1 [Example 216, 4-{4-[3-(3,5-dimethoxy-phenyl)-ureido]-phenyl}-piperazine-1-carboxylic acid [4-(2-hydroxy-ethoxy)-2-trifluoromethyl-phenyl]-amide]",≥ 60
5,"COc1ccccc1NC(=O)Nc1ccc(N2CCN(C(=O)Nc3ccc(OCCO)cc3C(F)(F)F)CC2)cc1 [Example 217, 4-{4-[3-(2-methoxy-phenyl)-ureido]-phenyl}-piperazine-1-carboxylic acid [4-(2-hydroxy-ethoxy)-2-trifluoromethyl-phenyl]-amide]",≥ 60
6,"COc1ccc(C)cc1NC(=O)Nc1ccc(N2CCCN(C(=O)Nc3ccc(OCCO)cc3C(F)(F)F)CC2)cc1 [Example 218, 4-{4-[3-(2-methoxy-5-methyl-phenyl)-ureido]-phenyl}-perhydro-1,4-diazepine-1-carboxylic acid [4-(2-hydroxy-ethoxy)-2-trifluoromethyl-phenyl]-amide]",≥ 60
7,"COc1ccc(C)cc1NC(=O)Nc1ccc(N2CCN(C(=O)Nc3ccc(OCCO)cc3C(F)(F)F)CC2)nc1 [Example 220, 4-{5-[3-(2-methoxy-5-methyl-phenyl)-ureido]-pyridin-2-yl}-piperazine-1-carboxylic acid [4-(2-hydroxy-ethoxy)-2-trifluoromethyl-phenyl]-amide]",≥ 60
8,"O=C(Nc1ccc(N2CCN(C(=O)Nc3ccc(OCCO)cc3C(F)(F)F)CC2)c(Cl)c1)Nc1ccccc1F [Example 221, 4-{2-chloro-4-[3-(2-fluoro-phenyl)-ureido]-phenyl}-piperazine-1-carboxylic acid [4-(2-hydroxy-ethoxy)-2-trifluoromethyl-phenyl]-amide]",≥ 60
9,"O=C(Nc1ccc(N2CCN(C(=O)Nc3ccc(OCCO)cc3C(F)(F)F)CC2)nc1)Nc1ccccc1F [Example 222, 4-{5-[3-(2-fluoro-phenyl)-ureido]-pyridin-2-yl}-piperazine-1-carboxylic acid [4-(2-hydroxy-ethoxy)-2-trifluoromethyl-phenyl]-amide]",≥ 60
10,"COc1ccc(F)cc1NC(=O)Nc1ccc(N2CCN(C(=O)Nc3ccc(OCCO)cc3C(F)(F)F)CC2)nc1 [Example 223, 4-{5-[3-(5-fluoro-2-methoxy-phenyl)-ureido]-pyridin-2-yl}-piperazine-1-carboxylic acid [4-(2-hydroxy-ethoxy)-2-trifluoromethyl-phenyl]-amide]",≥ 60
11,"CC(C)(C)c1csc(NC(=O)Nc2ccc(N3CCN(C(=O)Nc4ccc(OCCO)cc4C(F)(F)F)CC3)cc2)n1 [Example 224, 4-{4-[3-(4-tert-butyl-thiazol-2-yl)-ureido]-phenyl}-piperazine-1-carboxylic acid [4-(2-hydroxy-ethoxy)-2-trifluoromethyl-phenyl]-amide]",≥ 60
12,"Cc1nc(NC(=O)Nc2ccc(N3CCN(C(=O)Nc4ccc(OCCO)cc4C(F)(F)F)CC3)cc2)sc1C [Example 225, 4-{4-[3-(4,5-dimethyl-thiazol-2-yl)-ureido]-phenyl}-piperazine-1-carboxylic acid [4-(2-hydroxy-ethoxy)-2-trifluoromethyl-phenyl]-amide]",≥ 60
13,"COc1ccc(C)cc1NC(=O)Nc1ccc2c(c1)CCN(C(=O)Nc1ccc(OCCO)cc1C(F)(F)F)C2 [Example 226, 6-[3-(2-methoxy-5-methyl-phenyl)-ureido]-3,4-dihydro-1H-isoquinoline-2-carboxylic acid [4-(2-hydroxy-ethoxy)-2-trifluoromethyl-phenyl]-amide]",≥ 60
14,"O=C(Nc1ccc2c(c1)CCN(C(=O)Nc1ccc(OCCO)cc1C(F)(F)F)C2)Nc1ccccc1F [Example 227, 6-[3-(2-fluoro-phenyl)-ureido]-3,4-dihydro-1H-isoquinoline-2-carboxylic acid [4-(2-hydroxy-ethoxy)-2-trifluoromethyl-phenyl]-amide]",≥ 60
15,"O=C(Nc1ccc(C2=CCN(C(=O)Nc3ccc(OCCO)cc3C(F)(F)F)CC2)cc1)Nc1ccccc1F [Example 229, 4-{4-[3-(2-fluoro-phenyl)-ureido]-phenyl}-3,6-dihydro-2H-pyridine-1-carboxylic acid [4-(2-hydroxy-ethoxy)-2-trifluoromethyl-phenyl]-amide]",≥ 60
16,"COc1ccc(C)cc1NC(=O)Nc1ccc(N2CCN(C(=O)Nc3cc(OCCO)ccc3Cl)CC2)cc1 [Example 231, 4-{4-[3-(2-methoxy-5-methyl-phenyl)-ureido]-phenyl}-piperazine-1-carboxylic acid [2-chloro-5-(2-hydroxy-ethoxy)-phenyl]-amide]",≥ 60
17,"COc1ccccc1NC(=O)Nc1ccc(N2CCN(C(=O)Nc3cc(OCCO)ccc3Cl)CC2)cc1 [Example 232, 4-{4-[3-(2-methoxy-phenyl)-ureido]-phenyl}-piperazine-1-carboxylic acid [2-chloro-5-(2-hydroxy-ethoxy)-phenyl]-amide]",≥ 60
18,"CCOc1cccc(NC(=O)Nc2ccc(N3CCN(C(=O)Nc4cc(OCCO)ccc4Cl)CC3)cc2)c1 [Example 233, 4-{4-[3-(3-ethoxy-phenyl)-ureido]-phenyl}-piperazine-1-carboxylic acid [2-chloro-5-(2-hydroxy-ethoxy)-phenyl]-amide]",≥ 60
